# Percent effect of library compounds

Sequences of proteins named here, by UniProt entry; tags and fusion partners are left off. Residues count along the entry.
UniProt I6X8D2, whole entry: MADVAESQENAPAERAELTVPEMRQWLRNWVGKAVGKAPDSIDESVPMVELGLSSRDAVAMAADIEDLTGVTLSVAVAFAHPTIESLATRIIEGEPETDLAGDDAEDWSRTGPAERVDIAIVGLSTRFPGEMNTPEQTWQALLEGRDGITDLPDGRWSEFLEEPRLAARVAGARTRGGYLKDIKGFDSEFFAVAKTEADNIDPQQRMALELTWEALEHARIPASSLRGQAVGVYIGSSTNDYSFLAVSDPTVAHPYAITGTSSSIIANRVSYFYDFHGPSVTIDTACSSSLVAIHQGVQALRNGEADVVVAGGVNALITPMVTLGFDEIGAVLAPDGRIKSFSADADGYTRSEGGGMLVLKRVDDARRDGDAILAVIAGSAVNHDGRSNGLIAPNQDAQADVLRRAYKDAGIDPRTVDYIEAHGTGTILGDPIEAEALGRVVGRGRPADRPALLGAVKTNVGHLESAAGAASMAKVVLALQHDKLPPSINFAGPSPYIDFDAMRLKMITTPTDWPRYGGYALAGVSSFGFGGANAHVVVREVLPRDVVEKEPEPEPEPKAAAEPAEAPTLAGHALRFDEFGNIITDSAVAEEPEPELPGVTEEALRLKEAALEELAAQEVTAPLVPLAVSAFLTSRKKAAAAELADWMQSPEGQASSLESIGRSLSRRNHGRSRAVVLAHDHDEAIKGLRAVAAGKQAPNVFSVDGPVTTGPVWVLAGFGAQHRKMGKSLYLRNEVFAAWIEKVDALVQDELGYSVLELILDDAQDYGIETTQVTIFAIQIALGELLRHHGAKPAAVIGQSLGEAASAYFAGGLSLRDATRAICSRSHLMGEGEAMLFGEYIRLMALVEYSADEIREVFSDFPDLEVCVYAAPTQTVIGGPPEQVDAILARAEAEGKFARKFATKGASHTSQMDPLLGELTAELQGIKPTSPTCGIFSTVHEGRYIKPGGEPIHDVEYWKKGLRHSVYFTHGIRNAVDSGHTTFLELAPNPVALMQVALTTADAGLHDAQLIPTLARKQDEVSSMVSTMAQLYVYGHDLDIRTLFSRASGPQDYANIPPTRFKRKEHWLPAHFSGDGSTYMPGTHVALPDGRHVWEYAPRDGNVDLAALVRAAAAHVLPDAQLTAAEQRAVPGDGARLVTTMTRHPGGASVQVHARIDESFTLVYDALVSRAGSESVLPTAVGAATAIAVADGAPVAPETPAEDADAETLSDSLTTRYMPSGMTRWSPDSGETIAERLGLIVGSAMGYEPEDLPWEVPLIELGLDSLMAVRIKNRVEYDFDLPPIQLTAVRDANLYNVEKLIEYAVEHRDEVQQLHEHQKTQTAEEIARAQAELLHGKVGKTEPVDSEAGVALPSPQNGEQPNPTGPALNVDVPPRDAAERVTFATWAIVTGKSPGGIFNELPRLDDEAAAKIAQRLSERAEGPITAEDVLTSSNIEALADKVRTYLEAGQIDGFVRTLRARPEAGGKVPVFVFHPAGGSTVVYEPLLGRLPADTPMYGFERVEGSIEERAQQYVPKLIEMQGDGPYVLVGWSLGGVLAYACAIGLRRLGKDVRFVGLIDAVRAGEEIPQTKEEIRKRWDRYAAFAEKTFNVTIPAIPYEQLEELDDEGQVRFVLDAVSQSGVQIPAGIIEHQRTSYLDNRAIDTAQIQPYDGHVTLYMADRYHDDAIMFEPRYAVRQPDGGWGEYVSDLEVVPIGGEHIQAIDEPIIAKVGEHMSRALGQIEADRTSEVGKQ
UniProt A4I591, 1-473: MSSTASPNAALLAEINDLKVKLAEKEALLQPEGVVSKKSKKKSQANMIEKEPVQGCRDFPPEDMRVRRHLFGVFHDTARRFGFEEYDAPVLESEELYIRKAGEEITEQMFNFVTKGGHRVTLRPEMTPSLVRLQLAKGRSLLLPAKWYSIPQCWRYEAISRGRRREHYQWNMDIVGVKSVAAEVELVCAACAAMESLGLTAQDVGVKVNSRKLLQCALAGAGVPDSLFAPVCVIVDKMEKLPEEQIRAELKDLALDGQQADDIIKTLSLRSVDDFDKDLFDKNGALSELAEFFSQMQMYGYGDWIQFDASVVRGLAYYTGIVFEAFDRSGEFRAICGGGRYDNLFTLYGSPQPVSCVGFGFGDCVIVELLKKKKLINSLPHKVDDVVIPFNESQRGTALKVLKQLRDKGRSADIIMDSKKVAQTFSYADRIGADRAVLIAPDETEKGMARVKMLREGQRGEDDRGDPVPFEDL

Values are the deposited “Percent Effect”, in %.
The record does not define 0% and 100%; most values in the screen are far below 50% and negative numbers occur (in some assays of this library far below -100).
This is an unselected part of the compounds tested.

Pks13 thioesterase: 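Enzyme assay of the thioesterase domain of polyketide synthase 13; the read-out is not stated. Target: Polyketide synthase Pks13, Mycobacterium tuberculosis (UniProt I6X8D2). Concentration: 30 µM. Higher reads as stronger inhibition (inferred from which compounds were picked for retests). Of about 67,000 compounds tested this way, about 300 (0.46%) reached 50% or more in at least one test.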
LiHisRS: 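Histidine-tRNA ligase, Leishmania infantum (UniProt A4I591). Enzyme assay of histidyl-tRNA synthetase; the read-out is not stated. Compounds at 30 µM. Direction is inferred from retests: higher values go with stronger inhibition. The assay is labelled LdHisRS but filed under L. infantum. About 69,000 compounds were tested under these conditions; 0.6% (about 410) showed 50% or more at least once.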

structure: c1cncc(OCC2CN(Cc3ccsc3)Cc3nccn3C2)c1 (stereo not drawn)
Pks13 thioesterase: -8.021
LiHisRS: 10.09

structure: O=C(c1cccnc1)N1Cc2[nH]nc(COCCO)c2C1
Pks13 thioesterase: -30.07
LiHisRS: 15.52

structure: CC(=O)c1cn(CC(=O)NC(C(=O)O)C(C)C)c2ccccc12 (stereo not drawn)
Pks13 thioesterase: -6.587
LiHisRS: 0.9709

structure: Cc1cnc(-c2nc(O)c3c(n2)CN(C(=O)C2CC2)CC3)cn1
Pks13 thioesterase: 1.827
LiHisRS: 4.255

structure: CCN(CC)S(=O)(=O)c1ccc(C(F)(F)F)cc1C#N
LiHisRS: 11.11

structure: COC(=O)c1sccc1S(=O)(=O)N1CCC(Oc2cccnn2)CC1
Pks13 thioesterase: -5.656
LiHisRS: 7.692

structure: Cn1cccc1CN1CCC2(CC1)CN(c1ccccc1)C(=O)CO2
Pks13 thioesterase: 0.03027
LiHisRS: 32.98

structure: CC(C)C1SCC(=O)Nc2c1cnn2-c1ccc(F)cc1 (stereo not drawn)
Pks13 thioesterase: -29.4
LiHisRS: 21.74

structure: O=C(Nc1ccccc1)C1CN(CC2CCOCC2)CC12CCOCC2 (stereo not drawn)
Pks13 thioesterase: -22.11
LiHisRS: 17.81

structure: CCN1CC(C(=O)N2CC(Oc3ccccc3Cl)C2)CCC1=O (stereo not drawn)
Pks13 thioesterase: -14.95
LiHisRS: 17.74

structure: O=C(NCc1ccco1)[C@@]12CCO[C@@H]1CCN(Cc1ccccn1)C2
Pks13 thioesterase: -25.74
LiHisRS: 25.71

structure: COc1ccc(Cl)cc1NCC(=O)NCCNc1ncccn1
Pks13 thioesterase: 7.545
LiHisRS: 14.29

structure: c1nc2n(c1CN1CCCCC1)CCN(C1CCOC1)CC2 (stereo not drawn)
Pks13 thioesterase: -32.21
LiHisRS: 15.79

structure: CCN1CCN(C(=O)c2cc(-c3ccc(C)o3)n[nH]2)[C@H]2CS(=O)(=O)C[C@H]21
Pks13 thioesterase: 5.117
LiHisRS: 27.71

structure: CCOCC(O)CN1CCN(C(=O)c2ccc3c(c2)COC3)CC1 (stereo not drawn)
Pks13 thioesterase: -8.637
LiHisRS: 16.95

structure: Cc1ccoc1C(=O)N1CCO[C@H]2[C@H](OCc3ccncc3)CC[C@@H]21
Pks13 thioesterase: -17.56
LiHisRS: 4.167

structure: O=S(=O)(c1cccnc1)N1CCN(Cc2nc(-c3ccco3)cs2)CC1
Pks13 thioesterase: 2.482
LiHisRS: 10.26

structure: CC(NC(=O)CCCN(C)C)c1cn(-c2ccccc2)nn1 (stereo not drawn)
Pks13 thioesterase: -22.83
LiHisRS: 13.27

structure: Clc1cccc2c3c([nH]c12)CCN(Cc1cc2n(n1)CCNC2)C3
Pks13 thioesterase: -19.57
LiHisRS: 29.51

structure: CCOc1no[n+]([O-])c1-c1ccccc1
Pks13 thioesterase: 1.004
LiHisRS: 5.634

structure: Cc1oncc1C(=O)N[C@@H]1CN(CC2CC2)C[C@@H]2CCCO[C@@H]21
Pks13 thioesterase: -7.597
LiHisRS: 15.45

structure: CCOC(=O)N1CCN(c2nc(NCCCO)c3ccccc3n2)CC1
Pks13 thioesterase: -53.85
LiHisRS: 5.825

2 of the entries, repeated:

With CCN(CC)S(=O)(=O)c1ccc(C(F)(F)F)cc1C#N the screen gave LiHisRS: 11.11%.
With c1nc2n(c1CN1CCCCC1)CCN(C1CCOC1)CC2 (stereo not drawn) the screen gave Pks13 thioesterase: -32.21%; LiHisRS: 15.79%.

Measurements from “University of Dundee, Small-Polar-MMV Screening Library” (2021), ChEMBL document CHEMBL3988442.